These are yes or no findings as the source states them, for the method shown. Binding seen in cells or lysates may run through a third protein.
Biological target: T1, macrophage migration inhibitory factor (MIF), endogenous (human (endogenous in MDA-MB-231 and HeLa)) (UniProt P14174)
T1 sequence: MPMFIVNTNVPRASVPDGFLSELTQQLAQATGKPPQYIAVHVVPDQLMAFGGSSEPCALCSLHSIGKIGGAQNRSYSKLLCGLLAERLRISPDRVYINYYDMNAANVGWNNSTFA
Assay: co-IP; V5-tagged full-length PARP1 and truncates with MIF; cells and antibodies not stated

## V5-tagged PARP1 ΔZn (human) (domain or fragment)
  binding: no binding

Reference: PMC8134555
